# Test results from paper PMC10409943.
# Chains of the proteins cited; added tags and fusions are not shown. Residues count along the entry.
# UniProt P10912, residues 19-638: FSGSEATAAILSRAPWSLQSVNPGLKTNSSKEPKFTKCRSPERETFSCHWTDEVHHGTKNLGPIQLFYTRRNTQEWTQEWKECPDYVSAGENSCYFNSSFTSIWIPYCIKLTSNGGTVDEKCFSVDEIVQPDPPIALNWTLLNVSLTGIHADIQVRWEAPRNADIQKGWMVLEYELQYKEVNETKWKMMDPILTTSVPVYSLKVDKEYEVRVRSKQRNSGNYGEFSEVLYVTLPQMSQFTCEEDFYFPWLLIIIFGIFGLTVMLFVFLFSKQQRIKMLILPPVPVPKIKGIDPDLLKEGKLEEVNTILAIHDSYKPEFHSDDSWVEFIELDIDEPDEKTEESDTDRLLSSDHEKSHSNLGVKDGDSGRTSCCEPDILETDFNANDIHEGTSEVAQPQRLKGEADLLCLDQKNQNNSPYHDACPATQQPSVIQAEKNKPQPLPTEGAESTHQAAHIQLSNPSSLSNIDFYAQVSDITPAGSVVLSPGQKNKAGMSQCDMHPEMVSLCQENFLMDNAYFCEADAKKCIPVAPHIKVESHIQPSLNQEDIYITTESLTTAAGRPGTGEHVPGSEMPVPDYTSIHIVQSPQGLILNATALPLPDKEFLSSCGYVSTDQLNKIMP
# Target: growth hormone receptor (human (endogenous in RL95-2)) (UniProt P10912)
# Experiment: affinity purification with mass spectrometry; RL95-2 whole cell lysates (1 mg/ml), cells serum-starved and treated with or without 500 ng/ml GH; precipitated separately with anti-GHRIC and anti-GHREC antibodies on protein-G magnetic beads, eluates combined; peptides found in the IgG control filtered out; n = 3 per group
row,Binder,binding
1,"SLC1A5 (protein, UniProt Q15758 1-541) MVADPPRDSKGLAAAEPTANGGLALASIEDQGAAAGGYCGSRDQVRRCLRANLLVLLTVVAVVAGVALGLGVSGAGGALALGPERLSAFVFPGELLLRLLRMIILPLVVCSLIGGAASLDPGALGRLGAWALLFFLVTTLLASALGVGLALALQPGAASAAINASVGAAGSAENAPSKEVLDSFLDLARNIFPSNLVSAAFRSYSTTYEERNITGTRVKVPVGQEVEGMNILGLVVFAIVFGVALRKLGPEGELLIRFFNSFNEATMVLVSWIMWYAPVGIMFLVAGKIVEMEDVGLLFARLGKYILCCLLGHAIHGLLVLPLIYFLFTRKNPYRFLWGIVTPLATAFGTSSSSATLPLMMKCVEENNGVAKHISRFILPIGATVNMDGAALFQCVAAVFIAQLSQQSLDFVKIITILVTATASSVGAAGIPAGGVLTLAIILEAVNLPVDHISLILAVDWLVDRSCTVLNVEGDALGAGLLQNYVDRTESRSTEPELIQVKSELPLDPLPVPTEEGNPLLKHYRGPAGDATVASEKESVM",binds
2,"high mobility group nucleosome binding domain 1 (protein, UniProt P05114 1-100) MPKRKVSSAEGAAKEEPKRRSARLSAKPPAKVEAKPKKAAAKDKSSDKKVQTKGKRGAKGKQAEVANQETKEDLPAENGETKTEESPASDEAGEKEAKSD",binds
3,"TCOF1 (protein, UniProt Q13428 1-1488) MAEARKRRELLPLIYHHLLRAGYVRAAREVKEQSGQKCFLAQPVTLLDIYTHWQQTSELGRKRKAEEDAALQAKKTRVSDPISTSESSEEEEEAEAETAKATPRLASTNSSVLGADLPSSMKEKAKAETEKAGKTGNSMPHPATGKTVANLLSGKSPRKSAEPSANTTLVSETEEEGSVPAFGAAAKPGMVSAGQADSSSEDTSSSSDETDVEGKPSVKPAQVKASSVSTKESPARKAAPAPGKVGDVTPQVKGGALPPAKRAKKPEEESESSEEGSESEEEAPAGTRSQVKASEKILQVRAASAPAKGTPGKGATPAPPGKAGAVASQTKAGKPEEDSESSSEESSDSEEETPAAKALLQAKASGKTSQVGAASAPAKESPRKGAAPAPPGKTGPAVAKAQAGKREEDSQSSSEESDSEEEAPAQAKPSGKAPQVRAASAPAKESPRKGAAPAPPRKTGPAAAQVQVGKQEEDSRSSSEESDSDREALAAMNAAQVKPLGKSPQVKPASTMGMGPLGKGAGPVPPGKVGPATPSAQVGKWEEDSESSSEESSDSSDGEVPTAVAPAQEKSLGNILQAKPTSSPAKGPPQKAGPVAVQVKAEKPMDNSESSEESSDSADSEEAPAAMTAAQAKPALKIPQTKACPKKTNTTASAKVAPVRVGTQAPRKAGTATSPAGSSPAVAGGTQRPAEDSSSSEESDSEEEKTGLAVTVGQAKSVGKGLQVKAASVPVKGSLGQGTAPVLPGKTGPTVTQVKAEKQEDSESSEEESDSEEAAASPAQVKTSVKKTQAKANPAAARAPSAKGTISAPGKVVTAAAQAKQRSPSKVKPPVRNPQNSTVLARGPASVPSVGKAVATAAQAQTGPEEDSGSSEEESDSEEEAETLAQVKPSGKTHQIRAALAPAKESPRKGAAPTPPGKTGPSAAQAGKQDDSGSSSEESDSDGEAPAAVTSAQVIKPPLIFVDPNRSPAGPAATPAQAQAASTPRKARASESTARSSSSESEDEDVIPATQCLTPGIRTNVVTMPTAHPRIAPKASMAGASSSKESSRISDGKKQEGPATQVSKKNPASLPLTQAALKVLAQKASEAQPPVARTQPSSGVDSAVGTLPATSPQSTSVQAKGTNKLRKPKLPEVQQATKAPESSDDSEDSSDSSSGSEEDGEGPQGAKSAHTLGPTPSRTETLVEETAAESSEDDVVAPSQSLLSGYMTPGLTPANSQASKATPKLDSSPSVSSTLAAKDDPDGKQEAKPQQAAGMLSPKTGGKEAASGTTPQKSRKPKKGAGNPQASTLALQSNITQCLLGQPWPLNEAQVQASVVKVLTELLEQERKKVVDTTKESSRKGWESRKRKLSGDQPAARTPRSKKKKKLGAGEGGEASVSPEKTSTTSKGKAKRDKASGDVKEKKGKGSLGSQGAKDEPEEELQKGMGTVEGGDQSNPKSKKEKKKSDKRKKDKEKKEKKKKAKKASTKDSESPSQKKKKKKKKTAEQTV",binds
4,"ACO2 (protein, UniProt Q99798 28-780) QRAKVAMSHFEPNEYIHYDLLEKNINIVRKRLNRPLTLSEKIVYGHLDDPASQEIERGKSYLRLRPDRVAMQDATAQMAMLQFISSGLSKVAVPSTIHCDHLIEAQVGGEKDLRRAKDINQEVYNFLATAGAKYGVGFWKPGSGIIHQIILENYAYPGVLLIGTDSHTPNGGGLGGICIGVGGADAVDVMAGIPWELKCPKVIGVKLTGSLSGWSSPKDVILKVAGILTVKGGTGAIVEYHGPGVDSISCTGMATICNMGAEIGATTSVFPYNHRMKKYLSKTGREDIANLADEFKDHLVPDPGCHYDQLIEINLSELKPHINGPFTPDLAHPVAEVGKVAEKEGWPLDIRVGLIGSCTNSSYEDMGRSAAVAKQALAHGLKCKSQFTITPGSEQIRATIERDGYAQILRDLGGIVLANACGPCIGQWDRKDIKKGEKNTIVTSYNRNFTGRNDANPETHAFVTSPEIVTALAIAGTLKFNPETDYLTGTDGKKFRLEAPDADELPKGEFDPGQDTYQHPPKDSSGQHVDVSPTSQRLQLLEPFDKWDGKDLEDLQILIKVKGKCTTDHISAAGPWLKFRGHLDNISNNLLIGAINIENGKANSVRNAVTQEFGPVPDTARYYKKHGIRWVVIGDENYGEGSSREHAALEPRHLGGRAIITKSFARIHETNLKKQGLLPLTFADPADYNKIHPVDKLTIQGLKDFTPGKPLKCIIKHPNGTQETILLNHTFNETQIEWFRAGSALNRMKELQQ",binds

# No constants are given. Whether binding was seen depends on the method and setting. Binding seen in cells or lysates may run through a third protein. A yes stands for co-enrichment or nearness to the bait. Other partners may have been found.
